Assay results: PubChem BioAssay AID445 (National Center for Advancing Translational Sciences (NCATS), 2006)
This is one part of the list. These are further read-outs of the screen, such as a control signal, another cell line or another target. No call is given for them. Most of these compounds were active or inconclusive in the main read-out, so they are no random draw. The note in brackets gives the kind of curve behind each potency; many fits are weak.

assay: IkB Signaling; settings: ABC-DLBCL IkBa-CBG/CBR dual luciferase ratio (green luciferase fused to IkBa over red control in OCI-Ly3 lymphoma cells), 4 h; measured here: control luc red channel unless noted
Outline: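 Curves were fitted separately to fusion (green), unfused (red) and ratio luminescence, then classed by r2, magnitude and activity. Cells: OCI-Ly3, 4 h compound plus doxycycline at 37C; 10 uM MG-132 defined full response.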

Row | Structure (SMILES) | AC50
1 | COCCn1c(C)cc(O)c(C(c2ccccc2)N2CCCCC2)c1=O (stereo not drawn) | 0.1 µM [falling, single point]
2 | CCc1ccccc1NC(=O)N1CCN(Cc2nc3ccc(C)cc3o2)CC1 | 10 µM [falling, partial curve]
3 | Cc1ccc(-n2ncc3c(Nc4ccc(Oc5ccccc5)cc4)ncnc32)cc1 | 7.94 µM [falling, full curve]
4 | Cc1c(C(=O)Nc2cccc(C(F)(F)F)c2)sc2nc3n(c(=O)c12)CCC3 | 31.6 µM [falling, single point]
5 | CC(C)Cc1nn2c(=O)cc(COC(=O)c3cccc(NC(=O)c4ccccc4)c3)nc2s1 | 3.98 µM [falling, partial curve]
6 | Cc1cccc(N2CCN(C(=O)c3cc4ccc5cccnc5c4[nH]3)CC2)c1C | 20 µM [falling, partial curve]
7 | C=CCOC(=O)C1=C(C)NC(SC)=C(C#N)C1c1ccc(OCC)cc1 (stereo not drawn) | 25.1 µM [falling, partial curve]
8 | CCC(C)[C@@H](C(=O)Nc1ccc2c(c1)OCO2)N1Cc2ccccc2C1=O (stereo partly drawn) | 15.8 µM [falling, partial curve]
9 | CC(C)Oc1ccc(C(=O)NCCc2csc(-c3cccc(F)c3)n2)cc1 | 12.6 µM [falling, partial curve]
10 | Cc1ccccc1NC(=O)c1c(C)oc2ccc(O)c(CN(C)Cc3ccccc3)c12 | 12.6 µM [falling, partial curve]
11 | CCCCCn1c(CCCNC(=O)c2ccccc2)nc2ccccc21 | 12.6 µM [falling, partial curve]
12 | O=C(Nc1ncc(Cc2ccc(F)cc2)s1)c1ccc2c(c1)CC(c1ccccc1)OC2=O (stereo not drawn) | 12.6 µM [rising, partial curve]
13 | COc1cccc(NC(=O)Cn2c(=O)n(-c3ccc(C)cc3)c(=O)c3ccccc32)c1 | 25.1 µM [falling, single point]
14 | CCN(CCCNC(=O)CCc1nc(-c2ccc(C)cc2)no1)c1cccc(C)c1 | 12.6 µM [falling, partial curve]
15 | Cc1ccccc1NC(=O)CSc1nccn1C | 0.631 µM [rising, full curve, poor fit]
16 | Cc1ccc(-c2noc(CN(C(=O)c3cccs3)C(C)C)n2)cc1 | 25.1 µM [falling, single point]
17 | CCCSc1nnc(NC(=O)c2cc(=O)c3ccccc3o2)s1 | 39.8 µM [falling, single point]
18 | CCOC(=O)N1CCc2c(sc3c2c(=O)n(CCc2ccccc2)c(=O)n3CC(=O)Nc2ccccc2C)C1 | 20 µM [falling, single point]
19 | CCCN1CCN(CCCNC(=O)c2cc3c(s2)-c2c(C)cccc2OC3)CC1 | 0.2 µM [falling, full curve, poor fit]
20 | Cc1ccc(NC(=O)C2CCN(C(=O)c3sc4nc[nH]c(=O)c4c3C)CC2)cc1F | 3.98 µM [rising, full curve]
21 | Nc1c(C(=O)NC2CCCC2)c2nc3ccccc3nc2n1N | 5.01 µM [falling, partial curve]

Row | Structure (SMILES) | AC50
22 | COCCn1c(C)cc(O)c(C(c2cccc(F)c2)N2CCN(c3ccccc3)CC2)c1=O (stereo not drawn) | 0.398 µM [falling, full curve]
23 | COc1ccc(N(CC(=O)N2CCN(c3cccc(Cl)c3)CC2)S(=O)(=O)c2c(C)noc2C)cc1 | 3.16 µM [falling, single point]
24 | CCOc1ccc(C(=O)N2CC(=O)Nc3ccc(F)cc3C2c2ccc(F)cc2)cc1 (stereo not drawn) | 31.6 µM [falling, single point]
25 | CC(C)Cn1cc(C(=O)N2CCN(c3ccccn3)CC2)c2c3ccccc3n(C)c2c1=O | 12.6 µM [falling, partial curve]
26 | N#Cc1c(N2C(=O)C3C4C=CC(C4)C3C2=O)sc2c1CCC2 (stereo not drawn) | 31.6 µM [falling, single point]
27 | Cc1cc(C)c(NC(=O)C(C)n2nc(C)c3sc4ccccc4c3c2=O)c(C)c1 (stereo not drawn) | 3.98 µM [rising, partial curve, poor fit]
28 | COc1cccc(N2CC(NC(=O)c3cccs3)CC2=O)c1 (stereo not drawn) | 7.94 µM [rising, partial curve]
29 | O=S(=O)(NCC(c1ccco1)S(=O)(=O)c1cccs1)c1ccccc1 (stereo not drawn) | 6.31 µM [falling, full curve]
30 | Cc1ccc(OC(C)C(=O)N2CCN(CCc3ccccn3)CC2)cc1C (stereo not drawn) | 10 µM [falling, partial curve]
31 | CCCc1nnc(NC(=O)CSc2nnc3c4ccccc4n(CC)c3n2)s1 | 39.8 µM [falling, single point]
32 | Cc1cccc(C(=O)Nc2ccccc2C(=O)OCc2c(C)noc2C)c1 | 25.1 µM [falling, partial curve]
33 | Cc1ccc2nc(CN3CCN(C(=O)Nc4ccc(C)c(F)c4)CC3)oc2c1 | 39.8 µM [falling, single point]
34 | COc1ccc(CCNC(=O)c2ccc(Cn3c(=O)c4ccccc4n(Cc4ccc(C)cc4)c3=O)cc2)cc1OC | 0.01 µM [rising, full curve, poor fit]
35 | COCCCn1c(SCC(=O)Nc2ccccc2OC)nc2c(sc3ccccc32)c1=O | 39.8 µM [falling, single point]
36 | Nc1nc(CN2CCN(c3cccc(Cl)c3)CC2)nc(N2CCCc3ccccc32)n1 | 10 µM [falling, partial curve]
37 | CCOC(=O)C1CCCN(C(=O)Cn2ncn3c(cc4sc(CC)cc43)c2=O)C1 (stereo not drawn) | 25.1 µM [falling, single point]
38 | COc1cc(OC)c(NC(=O)Cc2ccc(-n3c(C)nc4cccnc43)cc2)cc1Cl | 25.1 µM [falling, single point]
39 | O=C(Nc1ccc(F)cc1)[C@@H](c1ccccc1)N1Cc2ccccc2C1=O | 31.6 µM [falling, single point]
40 | COc1ccc(NC(=O)Cn2c(=O)n(-c3ccc(OC)cc3)c(=O)c3ccc(C(=O)NCc4ccc(C)cc4)cc32)cc1 | 20 µM [rising, partial curve, poor fit]
41 | CC(C)c1ccc(NC(=O)CC2Oc3ccccc3NC2=O)cc1 (stereo not drawn) | 39.8 µM [falling, single point]
42 | Cc1cc(OCC(=O)N(Cc2ccc(N(C)C)cc2)C2CCS(=O)(=O)C2)cc(C)c1Cl (stereo not drawn) | 39.8 µM [falling, single point]

3 entries picked at random from those above, as already listed:
Row | Structure (SMILES) | AC50
39 | O=C(Nc1ccc(F)cc1)[C@@H](c1ccccc1)N1Cc2ccccc2C1=O | 31.6 µM [falling, single point]
41 | CC(C)c1ccc(NC(=O)CC2Oc3ccccc3NC2=O)cc1 (stereo not drawn) | 39.8 µM [falling, single point]
30 | Cc1ccc(OC(C)C(=O)N2CCN(CCc3ccccn3)CC2)cc1C (stereo not drawn) | 10 µM [falling, partial curve]

Going on with the list.

Row | Structure (SMILES) | AC50
43 | Cc1ccc(NC(=O)C(=O)NCC(c2ccc3c(c2)OCO3)N2CCN(c3ccccc3)CC2)cc1 (stereo not drawn) | 7.94 µM [falling, partial curve, poor fit]
44 | COc1ccc(CC(=O)NCC(c2cccs2)S(=O)(=O)c2ccc(Cl)cc2)cc1 (stereo not drawn) | 12.6 µM [falling, partial curve]
45 | Cc1cc(F)ccc1NC(=O)c1ccc2nc(Cc3ccccc3)oc2c1 | 2 µM [falling, partial curve]
46 | COc1cc(C(=O)Nc2nnc(-c3sccc3C)s2)cc(OC)c1OC | 10 µM [falling, partial curve]
47 | Cn1nnnc1SCC(=O)N1CCN(Cc2ccccc2)CC1 | 3.16 µM [falling, full curve]
48 | Cc1ccc(C)c(N2CCN(C(=O)c3cc(S(=O)(=O)N4CCC(C)CC4)cn3C)CC2)c1 | 25.1 µM [falling, single point]
49 | Brc1ccc(-c2nnc3ccc(N4CCN(c5ccccc5)CC4)nn23)cc1 | 0.794 µM [rising, full curve, poor fit]
50 | CCOc1cc2[nH]c(=O)n(CCCCC(=O)N3CCN(c4ccccc4)CC3)c(=O)c2cc1OCC | 31.6 µM [rising, partial curve, poor fit]
51 | COc1cccc(/C=N/n2c(SC)nnc2-c2ccccc2)c1OC | 12.6 µM [falling, partial curve]
52 | CCCc1cc(C(=O)NC2CCCCC2)no1 | 2.51 µM [falling, full curve]
53 | Cc1cccc(N2CCN(C(=O)C3CCN(S(=O)(=O)c4c(C)noc4C)CC3)CC2)c1C | 25.1 µM [falling, single point]
54 | COc1ccc2oc(=O)c(-c3cn4c(n3)sc3cc(F)ccc34)cc2c1 | 12.6 µM [falling, partial curve]
55 | COC(=O)c1ccc([C@H]2Nc3ccc(S(=O)(=O)Nc4cccc(C)c4)cc3[C@H]3C=CC[C@H]32)cc1 | 20 µM [falling, partial curve]
56 | COCCNC(=O)CCCn1c(SCc2ccccc2Cl)nc2c(sc3ccccc32)c1=O | 20 µM [falling, single point]
57 | CCCCOc1ccc(C(=O)N(Cc2ccco2)Cc2ccco2)cc1 | 3.98 µM [rising, partial curve]
58 | Cc1c(-c2nnc(SCC(=O)Nc3ccc(Cl)cc3)o2)nnn1-c1ccc(F)cc1 | 7.94 µM [falling, full curve]
59 | O=C(Nc1nnc(-c2ccco2)s1)C1CCCCC1 | 15.8 µM [falling, partial curve]
60 | CCOC(=O)Cc1c(C)nc2c(-c3cccc(Br)c3)c[nH]n2c1=O | 12.6 µM [falling, partial curve]
61 | CCN1CCSc2ccc(C(=O)NCc3ccccc3Br)cc21 | 3.16 µM [falling, partial curve]
62 | CN1CCN(C2=C(Cl)C(=O)N(c3ccc(Cl)c(Cl)c3)C2=O)CC1 | 7.94 µM [falling, partial curve]
63 | COC(=O)Cc1c(C)nc2nc(-c3ccc(C)cc3)[nH]n2c1=O | 5.01 µM [falling, partial curve]
